# From the supplement of paper PMC8728848
# This is one part of the list.
# B1: RsaA-N-term (Caulobacter crescentus), P35828 (protein)
# chain: MAYTTAQLVTAYTNANLGKAPDAATTLTLDAYATQTQTGGLSDAAALTNTLKLVNSTTAVAIQTYQFFTGVAPSAAGLDFLVDSTTNTNDLNDAYYSKFAQENRFINFSINLATGAGAGATAFAAAYTGVSYAQTVATAYDKIIGNAVATAAGVDVAAAVAFLSRQANIDYLTAFVRANTPFTAAADIDLAVKAALIGTILNAATVSGIGGYATATAAMINDLSDGALSTDNAAGVNLFTAYPSSGVSGSTLSLTTGTDTLTGTANNDTFVAGEVAGDGSGWSHPQFEKGG
# Columns and labels:
# Assay in all cases: glycan array binding signal (z-score within array); higher = stronger binding
# Settings in all cases: glycan notation: IUPAC condensed, linker removed
# [1] = target: Fuc(a1-2)[GalNAc(a1-3)]Gal(b1-3)GlcNAc(b1-3)GalNAc
# In short: (§1)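 Glycan array data came from 3228 arrays in the Consortium for Functional Glycomics database, and only arrays with an available protein sequence were kept. Glycan names were put into IUPAC-condensed notation, and columns mapping to the same glycan were averaged. The binding signal is a within-array Z-score, averaged across arrays of one protein sequence run at different concentrations or buffers and across linkers. A negative Z-score can be read as non-binding.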
# [2] = target: Fuc(a1-2)[GalNAc(a1-3)]Gal(b1-3)GlcNAc(b1-6)GalNAc
# In short: as §1
# [3] = target: Fuc(a1-2)[GalNAc(a1-3)]Gal(b1-4)Glc
# In short: as §1
# [4] = target: Fuc(a1-2)[GalNAc(a1-3)]Gal(b1-4)GlcNAc
# In short: as §1
# [5] = target: Fuc(a1-2)[GalNAc(a1-3)]Gal(b1-4)GlcNAc(b1-2)Man
# In short: as §1
# [6] = target: Fuc(a1-2)[GalNAc(a1-3)]Gal(b1-4)GlcNAc(b1-2)Man(a1-3)[Fuc(a1-2)[GalNAc(a1-3)]Gal(b1-4)GlcNAc(b1-2)Man(a1-6)]Man(b1-4)GlcNAc(b1-4)GlcNAc
# In short: as §1
# [7] = target: Fuc(a1-2)[GalNAc(a1-3)]Gal(b1-4)GlcNAc(b1-2)Man(a1-3)[Fuc(a1-2)[GalNAc(a1-3)]Gal(b1-4)GlcNAc(b1-2)Man(a1-6)]Man(b1-4)GlcNAc(b1-4)[Fuc(a1-6)]GlcNAc
# In short: as §1
# [8] = target: Fuc(a1-2)[GalNAc(a1-3)]Gal(b1-4)GlcNAc(b1-3)Gal(b1-4)GlcNAc
# In short: as §1
# [9] = target: Fuc(a1-2)[GalNAc(a1-3)]Gal(b1-4)GlcNAc(b1-3)Gal(b1-4)GlcNAc(b1-3)Gal(b1-4)GlcNAc
# In short: as §1
# [10] = target: Fuc(a1-2)[GalNAc(a1-3)]Gal(b1-4)GlcNAc(b1-3)GalNAc
# In short: as §1
# [11] = target: Fuc(a1-2)[GalNAc(a1-3)]Gal(b1-4)GlcNAc(b1-3)[Fuc(a1-2)[GalNAc(a1-3)]Gal(b1-4)GlcNAc(b1-6)]GalNAc
# In short: as §1
# [12] = target: Fuc(a1-2)[GalNAc(a1-3)]Gal(b1-4)GlcNAc(b1-6)GalNAc
# In short: as §1
# [13] = target: Fuc(a1-2)[GalNAc(a1-3)]Gal(b1-4)[Fuc(a1-3)]GlcNAc
# In short: as §1
# [14] = target: Fuc(a1-2)[GalNAc(a1-3)]Gal(b1-4)[Fuc(a1-3)]GlcNAc(b1-3)GalNAc
# In short: as §1
# [15] = target: Fuc(a1-2)[GalNAc(a1-4)]Gal(b1-4)GlcNAc
# In short: as §1
# [16] = target: Fuc(a1-2)[GalNAc(b1-3)]Gal
# In short: as §1
# Fuc(a1-3)GlcNAc = target: Fuc(a1-3)GlcNAc
# In short: as §1
# [17] = target: Fuc(a1-3)[Gal(b1-4)]Glc6S
# In short: as §1
# [18] = target: Fuc(a1-3)[Gal(b1-4)]GlcNAc
# In short: as §1
# [19] = target: Fuc(a1-3)[Gal(b1-4)]GlcNAc(b1-2)Man
# In short: as §1
# [20] = target: Fuc(a1-3)[Gal(b1-4)]GlcNAc(b1-2)Man(a1-3)[Fuc(a1-3)[Gal(b1-4)]GlcNAc(b1-2)Man(a1-6)]Man(b1-4)GlcNAc(b1-4)GlcNAc
# In short: as §1
# [21] = target: Fuc(a1-3)[Gal(b1-4)]GlcNAc(b1-2)Man(a1-3)[Fuc(a1-3)[Gal(b1-4)]GlcNAc(b1-2)Man(a1-6)]Man(b1-4)GlcNAc(b1-4)[Fuc(a1-6)]GlcNAc
# In short: as §1
# [22] = target: Fuc(a1-3)[Gal(b1-4)]GlcNAc(b1-3)Gal(b1-3)[Fuc(a1-4)]GlcNAc
# In short: as §1
# [23] = target: Fuc(a1-3)[Gal(b1-4)]GlcNAc(b1-3)Gal(b1-4)[Fuc(a1-3)]GlcNAc
# In short: as §1
# [24] = target: Fuc(a1-3)[Gal(b1-4)]GlcNAc(b1-3)Gal(b1-4)[Fuc(a1-3)]GlcNAc(b1-3)Gal(b1-4)[Fuc(a1-3)]GlcNAc
# In short: as §1
# [25] = target: Fuc(a1-3)[Gal(b1-4)]GlcNAc(b1-3)GalNAc
# In short: as §1
# [26] = target: Fuc(a1-3)[Gal(b1-4)]GlcNAc(b1-6)GalNAc
# In short: as §1
# [27] = target: Fuc(a1-3)[Gal(b1-4)]GlcNAc(b1-6)[Gal(b1-3)GlcNAc(b1-3)]Gal(b1-4)Glc
# In short: as §1
# [28] = target: Fuc(a1-3)[Gal(b1-4)]GlcNAc6S
# In short: as §1
# [29] = target: Fuc(a1-3)[Gal3S(b1-4)]Glc
# In short: as §1
# [30] = target: Fuc(a1-3)[Gal3S(b1-4)]GlcNAc
# In short: as §1
# [31] = target: Fuc(a1-3)[Gal3S(b1-4)]GlcNAc6S
# In short: as §1
# [32] = target: Fuc(a1-3)[GalNAc(b1-4)]GlcNAc
# In short: as §1
# [33] = target: Fuc(a1-3)[GalNAc(b1-4)]GlcNAc6S
# In short: as §1
# Fuc(a1-4)GlcNAc = target: Fuc(a1-4)GlcNAc
# In short: as §1
# Fuc(b1-3)GlcNAc = target: Fuc(b1-3)GlcNAc
# In short: as §1
# Gal(a1-2)Gal = target: Gal(a1-2)Gal
# In short: as §1
binder,measurement,setting,value
B1,glycan array binding signal (z-score),[1],-0.512
same,glycan array binding signal (z-score),[2],-0.447
same,glycan array binding signal (z-score),[3],0.384
same,glycan array binding signal (z-score),[4],0.063
same,glycan array binding signal (z-score),[5],0.442
same,glycan array binding signal (z-score),[6],1.69
same,glycan array binding signal (z-score),[7],0.029
same,glycan array binding signal (z-score),[8],0.938
same,glycan array binding signal (z-score),[9],0.016
same,glycan array binding signal (z-score),[10],-0.446
same,glycan array binding signal (z-score),[11],-1.55
same,glycan array binding signal (z-score),[12],0.045
same,glycan array binding signal (z-score),[13],0.069
same,glycan array binding signal (z-score),[14],-1.19
same,glycan array binding signal (z-score),[15],-1.27
same,glycan array binding signal (z-score),[16],-1.19
same,glycan array binding signal (z-score),Fuc(a1-3)GlcNAc,-0.979
same,glycan array binding signal (z-score),[17],0.305
same,glycan array binding signal (z-score),[18],-0.567
same,glycan array binding signal (z-score),[19],0.259
same,glycan array binding signal (z-score),[20],-0.505
same,glycan array binding signal (z-score),[21],0.314
same,glycan array binding signal (z-score),[22],-0.179
same,glycan array binding signal (z-score),[23],1.23
same,glycan array binding signal (z-score),[24],-0.91
same,glycan array binding signal (z-score),[25],-0.014
same,glycan array binding signal (z-score),[26],0.368
same,glycan array binding signal (z-score),[27],-1.36
same,glycan array binding signal (z-score),[28],-0.166
same,glycan array binding signal (z-score),[29],-0.005
same,glycan array binding signal (z-score),[30],-0.602
same,glycan array binding signal (z-score),[31],-0.52
same,glycan array binding signal (z-score),[32],0.166
same,glycan array binding signal (z-score),[33],-0.365
same,glycan array binding signal (z-score),Fuc(a1-4)GlcNAc,1.04
same,glycan array binding signal (z-score),Fuc(b1-3)GlcNAc,0.045
same,glycan array binding signal (z-score),Gal(a1-2)Gal,0.297

# A second format for some results above:
binder | measurement | setting | value
B1 | glycan array binding signal (z-score) | [7] | 0.029
same | glycan array binding signal (z-score) | [27] | -1.36
same | glycan array binding signal (z-score) | [30] | -0.602
